Measurements as given in PubChem BioAssay AID2551 (National Center for Advancing Translational Sciences (NCATS), 2010).
Several values for one entry are separate records, joined by “and”; a condition that tells them apart may be missing. Equal entries are not always repeated. About 17,000 (5.5%) of roughly 310,000 compounds were called active. Inconclusive results, whose numbers are uncertain, are shown with a selection of clear calls. The call rests on the fitted dose curve; in most records, active means well fitted inhibition curve with a large enough effect; inconclusive means small, poorly fitted or top-dose-only effect, or effect the other way; inactive means no such curve, though single readings can be large or run the other way. Potencies of inconclusive entries are doubtful fits and often do not repeat.

Chains of the proteins cited; added tags and fusions are not shown. Lines headed by an entry give the natural chain unless they say otherwise; changes in a name come on top.
UniProt P51450: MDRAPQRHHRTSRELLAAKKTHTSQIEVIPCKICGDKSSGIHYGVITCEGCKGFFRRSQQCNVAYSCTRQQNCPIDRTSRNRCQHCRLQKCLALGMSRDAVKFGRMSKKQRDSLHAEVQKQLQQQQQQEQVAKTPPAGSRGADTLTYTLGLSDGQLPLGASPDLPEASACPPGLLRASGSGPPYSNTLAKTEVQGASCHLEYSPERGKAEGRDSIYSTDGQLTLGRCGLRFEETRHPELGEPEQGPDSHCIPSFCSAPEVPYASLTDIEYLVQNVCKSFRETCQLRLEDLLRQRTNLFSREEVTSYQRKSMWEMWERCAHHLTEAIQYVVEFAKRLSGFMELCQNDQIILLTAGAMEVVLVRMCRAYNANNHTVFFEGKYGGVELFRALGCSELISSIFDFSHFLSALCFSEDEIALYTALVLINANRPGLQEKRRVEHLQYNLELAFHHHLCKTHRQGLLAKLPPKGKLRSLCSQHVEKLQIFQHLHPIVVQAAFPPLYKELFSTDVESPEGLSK

target: Nuclear receptor ROR-gamma (Mus musculus) (UniProt P51450); test: qHTS for inhibitors of ROR gamma transcriptional activity; settings: Drosophila S2 Gal4-RORgamma UAS-luciferase reporter, 20 h; activity change, negative = inhibition: at 53.6 µM (top of the series); further: nearly all actives have a fitted effect of over 60% in size
Outline: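 A Gal4/UAS one-hybrid system in insect cells: metallothionein-promoter Gal4–ROR gamma fusion plus Photinus luciferase reporter. Copper sulfate 700 uM final, 20 hr ambient incubation, luminescent detection after 10 min with reagent.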
On the % scale 0 is the no-effect control and ±100 the full control effect; potency means the concentration at half of the fitted maximal effect.

Structure (SMILES)	activity change, negative = inhibition	Potency
CCc1cccc(NC(=O)C2CCCN(S(=O)(=O)c3cccs3)C2)c1 (configuration not stated)	inactive: 23.3%	
O=C(CN1CCN(Cc2ccc(F)cc2Cl)C1=O)NCCc1ccccc1		inconclusive: 35.5 µM [inhibitor, single point]
CN(C)CCNC(=O)Nc1ccc(F)cc1F	inactive: 4.43%	
Cc1noc(C)c1C(=O)N1CCC2(CCN(Cc3ccccc3)CC2)CC1	inactive: -20.6%	
CC(=O)c1ccc(N2CCN(C(=O)C(=O)c3c(C)[nH]c4ccccc34)CC2)cc1		inconclusive: 14.1 µM [activator, single point]
COc1ccc(/C=N/NC(=O)c2cccc([N+](=O)[O-])c2)cc1OC(=O)c1ccc(C)cc1		active: 5.01 µM
COc1ncc2nc(-c3cc(F)cc(F)c3)c(=O)n(CCC#N)c2n1	inactive: 8.13%	
Nc1ccc(N2CCCCC2)c2nonc12	inactive: -27.7%	
Brc1ccc(CN2CCN(Cc3c[nH]c4ccccc34)CC2)cc1	inactive: 0.009%	
O=[N+]([O-])c1ccc(/C=N/NC(=S)Nc2ccc(Cl)cc2Cl)s1		inconclusive: 35.5 µM [inhibitor, single point]
Cn1c(=O)c2c(nc(CN3CCN(Cc4ccccc4)CC3)n2Cc2ccc(Cl)cc2)n(C)c1=O		inconclusive: 5.01 µM [inhibitor, partial curve]
O=C(COC(=O)c1ccc([N+](=O)[O-])o1)Nc1cccc(S(=O)(=O)N2CCOCC2)c1		inconclusive: 15.8 µM [inhibitor, single point]
CCCCc1ccc(NC(=S)NCCO)cc1		inconclusive: 22.4 µM [inhibitor, single point]
CCN(CC)CCC(c1ccc(N(C)C)cc1)c1c(OC)cc(OC)c2c(C)cc(=O)oc12 (configuration not stated)		inconclusive: 35.5 µM [inhibitor, single point]
Cc1cc(O)c(C(=O)/C=C/c2ccc(C(C)C)cc2)c(=O)o1		inconclusive: 35.5 µM [inhibitor, single point]
O=C(CSc1cnc2ccccc2n1)NC1CCCC1		inconclusive: 31.6 µM [activator, single point]
CC(=O)c1ccc(NC(=O)CSc2ccc3nnc(-c4cccnc4)n3n2)cc1	inactive: -16.7%	
COCCNC(=O)c1nn(-c2cc(OC)cc(OC)c2)c(=O)c2ccccc12		inconclusive: 0.794 µM [activator, full curve, poor fit]
CCOc1ccc(CCN2C(=O)C(=O)N([C@H](CCCN(C)Cc3ccccc3)CNCc3ccccc3)C[C@@H]2C(C)C)cc1	inactive: 40.4%	
C=CCn1c2ccccc2c2n[nH]c(=S)nc21		active: 2.51 µM
CN1CCN(c2ncc3nc(-c4ccccc4)c(=O)n(C)c3n2)CC1	inactive: -9.83%	
Cc1ccc(NC2=C/C(=N/S(=O)(=O)c3cccs3)c3ccccc3C2=O)cc1C		inconclusive: 0.891 µM [inhibitor, full curve]
CC(NC(=O)c1ccccc1NC(=O)CN1CCc2ccccc2C1)c1ccccc1 (configuration not stated)	inactive: 25.9%	
Cc1cc(NC(=O)CN2C(=O)NC(C)(c3ccccc3)C2=O)no1 (configuration not stated)		inconclusive: 3.55 µM [inhibitor, partial curve]

Structure (SMILES)	activity change, negative = inhibition	Potency
CC(C)(C)c1ccc(Cn2nnc3c(=O)[nH]c(C4CCCN(C(=O)c5cccs5)C4)nc32)cc1 (configuration not stated)		inconclusive: 17.8 µM [activator, partial curve, poor fit]
NS(=O)(=O)c1ccc(NN=C2CCN(Cc3ccccc3)CC2)c([N+](=O)[O-])c1		inconclusive: 17.8 µM [inhibitor, single point]
CC(=O)c1ccc(Nc2cc(C)nc3c(C)cc(C)cc23)cc1		inconclusive: 35.5 µM [inhibitor, single point]
COc1ccc(O)c(/C=N/NC(=O)c2ccc(CSc3nc(C)cc(C)n3)cc2)c1		active: 1.26 µM
CCn1c(SCC(=O)N2CCCCCC2)nc2ccccc2c1=O	inactive: 8.4%	
O=C(NC(=S)Nc1ccc(Br)c(Cl)c1)C1CC1		active: 4.47 µM
Cc1nc2cnc(Nc3ccccc3)nc2n(C2CC2)c1=O	inactive: 29.2%	
CN(C(=O)c1sc2nc(N3CCOCC3)c3c(c2c1N)CCCC3)c1ccccc1	inactive: 0.535%	
COc1ccc(OCC(=O)NC(=S)N2CCCc3ccccc32)cc1		inconclusive: 11.2 µM [inhibitor, single point]
Cc1cccc(-n2c(-c3csc(C)c3C)n[nH]c2=S)c1		active: 2.51 µM
COc1ccc(C(CC(=O)N2CCCCC2)c2c(O)cc(OC)cc2OC)cc1 (configuration not stated)		inconclusive: 15.8 µM [inhibitor, partial curve] and inconclusive: 35.5 µM [inhibitor, single point]
CC(=O)NC(Cc1ccc(F)cc1)C(=O)N1CCN(C(=O)NCc2ccccc2)CC1 (configuration not stated)		inconclusive: 2.82 µM [activator, single point]
O=C(CSc1ccc2c(c1)OCCO2)NC(=O)NC1CCCC1		inconclusive: 8.91 µM [activator, partial curve]
COc1cc(O)c(C(CC(=O)N2CCCCC2)c2ccc(N(C)C)cc2)c(OC)c1 (configuration not stated)		active: 14.1 µM and active: 1 µM
CCOC(=O)c1c(CSCc2ccccc2)oc2ccc(O)c(CN(C)C)c12		inconclusive: 11.2 µM [inhibitor, partial curve]
CCC(C)OC(=O)C1=C(C)NC(=O)NC1c1ccc(F)cc1 (configuration not stated)		inconclusive: 35.5 µM [inhibitor, single point]
c1nc(NC2CCCCC2)c2[nH]cnc2n1		inconclusive: 11.2 µM [activator, partial curve]
O=C(CSc1nnnn1-c1cccc(O)c1)NC1CC1	inactive: 8.79%	
Cc1ccc(NC(=O)C(=O)NNC(=O)c2ccccc2C)cc1Cl		inconclusive: 20 µM [inhibitor, partial curve]
COc1ccc(-c2oc3cccnc3c2C#CC2(O)CCCCC2)cc1		active: 7.08 µM
Cc1ccc(N(C)S(=O)(=O)c2cccc(C(=O)Nc3nc4ccccc4[nH]3)c2)cc1		active: 1.26 µM
COC(=O)NNC(=S)NCc1ccccc1		inconclusive: 20 µM [inhibitor, single point]
CCn1cnc2cc(NCc3nc4ccccc4n3C)ccc21		inconclusive: 10 µM [inhibitor, partial curve, poor fit]

Some of these compounds in order of count of non-hydrogen atoms, ascending.
Structure (SMILES)	activity change, negative = inhibition	Potency
C=CCn1c2ccccc2c2n[nH]c(=S)nc21		active: 2.51 µM
CCC(C)OC(=O)C1=C(C)NC(=O)NC1c1ccc(F)cc1 (configuration not stated)		inconclusive: 35.5 µM [inhibitor, single point]
O=C(CSc1ccc2c(c1)OCCO2)NC(=O)NC1CCCC1		inconclusive: 8.91 µM [activator, partial curve]
